Measured values: paper PMC7819943, “Rice protein-binding microarrays: a tool to detect cis-acting elements near promoter regions in rice”
The other results are listed elsewhere or left out.

By UniProt entry, the sequences of proteins in these tests, tags left out.
UniProt Q0JBA9, entry or part of it: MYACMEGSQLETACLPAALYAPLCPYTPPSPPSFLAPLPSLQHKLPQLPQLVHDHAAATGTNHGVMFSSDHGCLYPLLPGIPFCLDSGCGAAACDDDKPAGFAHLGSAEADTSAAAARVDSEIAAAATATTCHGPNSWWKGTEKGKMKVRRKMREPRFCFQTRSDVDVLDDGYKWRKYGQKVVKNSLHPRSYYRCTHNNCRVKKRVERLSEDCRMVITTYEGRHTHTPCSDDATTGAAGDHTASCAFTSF

Each sequence was assayed against OsWRKY34 (Oryza sativa, UniProt Q0JBA9 1-250) (assay: protein-binding microarray (RPBM); PBS, 2% BSA, 51.3 ng/ul salmon testes DNA, 50 uM zinc acetate, 200 nM TF, 25 C, 1 h; high values mean tight binding). Conditions: protein: recombinant; tags: N-terminal polyhistidine and DsRed monomer fusion (pET32a); label: CyDye5-dUTP incorporated in the synthesized complementary strand; 3' TTTTT single-stranded linker to array surface; dsDNA, one strand shown.
Outline: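 An Axon 4000B scanner gave the binding signal as per-feature fluorescence intensity in arbitrary units. This followed washing of a custom Agilent array that had been incubated for 1 h at 25 °C with 200 nM protein in PBS, 2% BSA, salmon testes DNA and 50 µM zinc acetate. The proteins were transcription factors fused at the N-terminus to polyhistidine and DsRed, expressed in E. coli BL21-CodonPlus and purified on Ni–NTA.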

Sequence | binding signal
GGGATGGGTAGGGGTGGGTTGTGCTGTATTATACTACACCCGGAGTCACCTAGTGCAG | 19200 fluorescence intensity (a.u.)
CACACAACTCATGTCTATCAATCATTGCATCCCAACTTGCCGGAGTCACCTAGTGCAG | 8480 fluorescence intensity (a.u.)
GCCATTGTACCCCACCCTTCTCTCGATTGCTCTTCCCCTGCGGAGTCACCTAGTGCAG | 8380 fluorescence intensity (a.u.)
AGTGGCGGGTTTTACAACTTCGGTGTGCATGCATAAATCTCGGAGTCACCTAGTGCAG | 12300 fluorescence intensity (a.u.)
ATTTTCTTTGAATGCCTCTTAGCCCATTTAGTTTGGTCCACGGAGTCACCTAGTGCAG | 8920 fluorescence intensity (a.u.)
CCTCCTCATTCGCGATCTCTCTCTCTCTCTTTCTTTCGTCCGGAGTCACCTAGTGCAG | 8090 fluorescence intensity (a.u.)
TTCGGGCCCCTGAATTGTTAGGTAATAACCCTACATCCTGCGGAGTCACCTAGTGCAG | 13500 fluorescence intensity (a.u.)
TCCCCTTCAGACATCTTCCCCATCCTCGCCTGCTTCAGTCCGGAGTCACCTAGTGCAG | 8160 fluorescence intensity (a.u.)
GGTGGGTTGGGCCGTGATTTGTATGGACTTTATTTGTAAGCGGAGTCACCTAGTGCAG | 19000 fluorescence intensity (a.u.)
CAGTACTGCAGATAATCTCCACTGACCTTCGTACATATTACGGAGTCACCTAGTGCAG | 8180 fluorescence intensity (a.u.)
TGCATAGTCACACGACCGACGGGAAGCTTTTTTATATTATCGGAGTCACCTAGTGCAG | 8240 fluorescence intensity (a.u.)
TCTTCAGTTGCTTATTTTCGATATTGTTAACCGGACTTCACGGAGTCACCTAGTGCAG | 13300 fluorescence intensity (a.u.)
CTCATCTCTGGAAATTTCAGATCTGCGCGGTAAAATCAATCGGAGTCACCTAGTGCAG | 10600 fluorescence intensity (a.u.)
ATCGCCGCCGCCTCCAGGACCACGTCTTCGTCCTCGAGGACGGAGTCACCTAGTGCAG | 8660 fluorescence intensity (a.u.)
AACCCCACTTTTATTCACTTAGATGGTCCCATATGTCATCCGGAGTCACCTAGTGCAG | 8670 fluorescence intensity (a.u.)
GCCTTTTCTAAATTATTTTTCACTTTTCTGATTTTTTAAACGGAGTCACCTAGTGCAG | 8790 fluorescence intensity (a.u.)
CCATAGTAGTATAGCTTGATTATTGTGTTTACTGGCTACACGGAGTCACCTAGTGCAG | 8192 fluorescence intensity (a.u.)
ACCACCACCTTTTTCCAGCTAGCACTGCAATTAAACAATCCGGAGTCACCTAGTGCAG | 9120 fluorescence intensity (a.u.)
TGTATCGTCATCTGCTGTATCTACAGTCTTCAATTAAGTTCGGAGTCACCTAGTGCAG | 8720 fluorescence intensity (a.u.)
GAGTTTACACTTATGCCCCTGGGTTTATTTTATTTTTATTCGGAGTCACCTAGTGCAG | 9250 fluorescence intensity (a.u.)
TTTGTCAGCACCATTAAACTGTTGGCGTTTAGTGTTCACTCGGAGTCACCTAGTGCAG | 8310 fluorescence intensity (a.u.)

Sequence | binding signal
AGAGTGGGGCTTGGTGTCGGGTTTTTAGGATTAAGTTTTGCGGAGTCACCTAGTGCAG | 14500 fluorescence intensity (a.u.)
TCCTAGGCGATCTCACATTTTTTGTTGCGTTTCTCCGCCCCGGAGTCACCTAGTGCAG | 8850 fluorescence intensity (a.u.)
ATCTCTCTTTGCGGTCTTTACTACCCACTACGCCTAACCCCGGAGTCACCTAGTGCAG | 9100 fluorescence intensity (a.u.)
TGTGTGGGCTTAATAATTGTGGGGTAGATTTGCATTTGCACGGAGTCACCTAGTGCAG | 15900 fluorescence intensity (a.u.)
CCCTCCGAATCGATCGCCGGCCGGCCGCCCGCCCGCCACCCGGAGTCACCTAGTGCAG | 8550 fluorescence intensity (a.u.)
AAAAAACAATTTTCGTTTGCAGCGGTCGACATTTTTCTTCCGGAGTCACCTAGTGCAG | 9580 fluorescence intensity (a.u.)
ACTCCTTACGTATTCGGCTGAGTTCTTTTACCAACTTTTCCGGAGTCACCTAGTGCAG | 9780 fluorescence intensity (a.u.)
CGCATGCCGTGTGCCTGAGCTTTTCTCGTGCTATCACAGTCGGAGTCACCTAGTGCAG | 9280 fluorescence intensity (a.u.)
TGTCTGTCCATGTCCAAGGAGACTGATTTATCTTTTTTCTCGGAGTCACCTAGTGCAG | 8380 fluorescence intensity (a.u.)
TTTTTTTATTATTTTTCCGGGATTCATTTGCCACGTCAATCGGAGTCACCTAGTGCAG | 8040 fluorescence intensity (a.u.)
AAGTATCTCTTACTCCGTCTTTGCTTGGCTCATCGATTGCCGGAGTCACCTAGTGCAG | 9900 fluorescence intensity (a.u.)
CCCTTTCATATCAGGAGGCTGGCGTAGTGGACGGGCGGGGCGGAGTCACCTAGTGCAG | 11400 fluorescence intensity (a.u.)
AGCTATTCCGTTCGTTATCCCAGTTAGCTAGCTAGAATCTCGGAGTCACCTAGTGCAG | 10500 fluorescence intensity (a.u.)
TTTCTTCCACTTCTCTCGCAGGCTGTTGAATAATCTTTTCCGGAGTCACCTAGTGCAG | 11700 fluorescence intensity (a.u.)
TTTAAGCTTTCCATCTTGAAAAAAAAATGGCGTTGACCGGCGGAGTCACCTAGTGCAG | 11100 fluorescence intensity (a.u.)
GGTAGAGAAGACGAGGAGTAGGAGGGGTGGTTGGTGCCGACGGAGTCACCTAGTGCAG | 9970 fluorescence intensity (a.u.)
CTTCTTGCTTTCATCGTTGGTTCTTTTGAGATCACTTTCACGGAGTCACCTAGTGCAG | 12100 fluorescence intensity (a.u.)
TCTACTCGCGGCCTTCCGTTCCAATATGCTATCTGCCTCTCGGAGTCACCTAGTGCAG | 9600 fluorescence intensity (a.u.)
CGACGCGTCCCTCCTCCTTCTCGCTGTCCCCGACCATTTCCGGAGTCACCTAGTGCAG | 11700 fluorescence intensity (a.u.)
TTTTGCTGACTAGGATGCCACGTCGAAACCACCCATACATCGGAGTCACCTAGTGCAG | 8660 fluorescence intensity (a.u.)
TTGATGGTTGTGCTATGTTTTGTCCAACATTTTATCTTTCCGGAGTCACCTAGTGCAG | 9360 fluorescence intensity (a.u.)

Quoted from the entries so far (13 entries):
Sequence | binding signal
TCCTAGGCGATCTCACATTTTTTGTTGCGTTTCTCCGCCCCGGAGTCACCTAGTGCAG | 8850 fluorescence intensity (a.u.)
ATCTCTCTTTGCGGTCTTTACTACCCACTACGCCTAACCCCGGAGTCACCTAGTGCAG | 9100 fluorescence intensity (a.u.)
TGTGTGGGCTTAATAATTGTGGGGTAGATTTGCATTTGCACGGAGTCACCTAGTGCAG | 15900 fluorescence intensity (a.u.)
CCCTCCGAATCGATCGCCGGCCGGCCGCCCGCCCGCCACCCGGAGTCACCTAGTGCAG | 8550 fluorescence intensity (a.u.)
AAAAAACAATTTTCGTTTGCAGCGGTCGACATTTTTCTTCCGGAGTCACCTAGTGCAG | 9580 fluorescence intensity (a.u.)
ACTCCTTACGTATTCGGCTGAGTTCTTTTACCAACTTTTCCGGAGTCACCTAGTGCAG | 9780 fluorescence intensity (a.u.)
CGCATGCCGTGTGCCTGAGCTTTTCTCGTGCTATCACAGTCGGAGTCACCTAGTGCAG | 9280 fluorescence intensity (a.u.)
TGTCTGTCCATGTCCAAGGAGACTGATTTATCTTTTTTCTCGGAGTCACCTAGTGCAG | 8380 fluorescence intensity (a.u.)
TTTTTTTATTATTTTTCCGGGATTCATTTGCCACGTCAATCGGAGTCACCTAGTGCAG | 8040 fluorescence intensity (a.u.)
AAGTATCTCTTACTCCGTCTTTGCTTGGCTCATCGATTGCCGGAGTCACCTAGTGCAG | 9900 fluorescence intensity (a.u.)
CCCTTTCATATCAGGAGGCTGGCGTAGTGGACGGGCGGGGCGGAGTCACCTAGTGCAG | 11400 fluorescence intensity (a.u.)
AGCTATTCCGTTCGTTATCCCAGTTAGCTAGCTAGAATCTCGGAGTCACCTAGTGCAG | 10500 fluorescence intensity (a.u.)
TTTCTTCCACTTCTCTCGCAGGCTGTTGAATAATCTTTTCCGGAGTCACCTAGTGCAG | 11700 fluorescence intensity (a.u.)

Next part.

Sequence | binding signal
GACCTCCTCGCCTCATCCACTCTTTGCCTGCCTCCGCGACCGGAGTCACCTAGTGCAG | 10500 fluorescence intensity (a.u.)
TATACATCATCCCCAATTTTCTCTTCATTCATAATTCATCCGGAGTCACCTAGTGCAG | 8070 fluorescence intensity (a.u.)
CCCGCCACGTGCCGTCCTGCCCGTCCGACGTGGCGCCGCGCGGAGTCACCTAGTGCAG | 9320 fluorescence intensity (a.u.)
AAATTTCACCACACTTTCCAATCTCGTTTAGTTTGGACTACGGAGTCACCTAGTGCAG | 8870 fluorescence intensity (a.u.)
GTGGGGTGGTGGTTGATCTCCTCCTCGTCGTCGGATGACACGGAGTCACCTAGTGCAG | 12400 fluorescence intensity (a.u.)
CAACAATACTGACACTGGAATTATCCAATGCATTCCTAAACGGAGTCACCTAGTGCAG | 8270 fluorescence intensity (a.u.)
GACGTTCTCATTGTTATTCCCCTACGTTTGTAATCATCTACGGAGTCACCTAGTGCAG | 9460 fluorescence intensity (a.u.)
TTAGGACCTTATTTGCACTAGTTTTGAGTTTTGATAGTTGCGGAGTCACCTAGTGCAG | 8600 fluorescence intensity (a.u.)
ATCTTCACACTCATAATCTCACCCTTAGTTTATCTGATACCGGAGTCACCTAGTGCAG | 9560 fluorescence intensity (a.u.)
CTTCACTCGGTCCAGCCACCGCTCGCGCTACGCGCGCGTCCGGAGTCACCTAGTGCAG | 8520 fluorescence intensity (a.u.)
GCTCTTCAGTCTTTGAGGTGAAATCAATTTTCGTAGCAGTCGGAGTCACCTAGTGCAG | 8460 fluorescence intensity (a.u.)
ATTCTATACTCCAGCTTTAAAATTTAACTTTCTCGTTTACCGGAGTCACCTAGTGCAG | 8430 fluorescence intensity (a.u.)
CTAGCTGATCGGGGTTCTGACTCTACCCATCACGATTTAACGGAGTCACCTAGTGCAG | 11800 fluorescence intensity (a.u.)
CTCTCTATCTCTCACCAGTCGGTGGTAGCAACCAGCATCACGGAGTCACCTAGTGCAG | 10900 fluorescence intensity (a.u.)
CCCACCACCACTCGCATCACCATCCATCCATCCATCTCCACGGAGTCACCTAGTGCAG | 9400 fluorescence intensity (a.u.)
GCTTGTTTCTTACCATACGGGTCCACACAAGCAACACATACGGAGTCACCTAGTGCAG | 8680 fluorescence intensity (a.u.)
ACACAGCTATCTTGCTCTTCTAGCAGTTTCAGGCAGCTCTCGGAGTCACCTAGTGCAG | 10300 fluorescence intensity (a.u.)
TTTCTCATTTGCGCTCCATTTTATAGATCTAAGTATTAACCGGAGTCACCTAGTGCAG | 10700 fluorescence intensity (a.u.)
AACAGCATAACCAGACATATTTTTTGGCTTTTCCTTTTCTCGGAGTCACCTAGTGCAG | 9010 fluorescence intensity (a.u.)
GGTCAAACGTTGGACACGGAAACCCATGGTTTATCTTTTTCGGAGTCACCTAGTGCAG | 9050 fluorescence intensity (a.u.)
GAGCAGTCACATCCTCCGCCACCGCCGCCTGCGCCGATCCCGGAGTCACCTAGTGCAG | 8340 fluorescence intensity (a.u.)

Sequence | binding signal
GACAGCCAATCCATCGTCTTCCTCGCGAGCATGGCCATGACGGAGTCACCTAGTGCAG | 8530 fluorescence intensity (a.u.)
TCTTCACCGCCGCCGTGCTCCACCGTATCCTTCGGCGACCCGGAGTCACCTAGTGCAG | 10100 fluorescence intensity (a.u.)
CTGTGTTGCAGTCATTTTCTCTCCCATAGCTGTCCTTATACGGAGTCACCTAGTGCAG | 11400 fluorescence intensity (a.u.)
ACCGTTCGTCTTATTCAAAAATTTTAAGTAATTATTAATTCGGAGTCACCTAGTGCAG | 8260 fluorescence intensity (a.u.)
GGCTGGCGGGCGGCGGGCGGGCGAGGACAAGCACCTCTCCCGGAGTCACCTAGTGCAG | 13000 fluorescence intensity (a.u.)
CACACATAACTCATCGCCTCATCATCGTCATCTATCTCCGCGGAGTCACCTAGTGCAG | 8360 fluorescence intensity (a.u.)
ATTAGTTTTTTTTTCTATATTTAATACTCCATGCATATGTCGGAGTCACCTAGTGCAG | 9200 fluorescence intensity (a.u.)
TCCTGTCCTGTCGGTGCTCTCGACTCCTCACCTCACCCACCGGAGTCACCTAGTGCAG | 9880 fluorescence intensity (a.u.)
GTTTTAGCTGTAGTGTGTTTGCTTGCTGTTTGAATCAAACCGGAGTCACCTAGTGCAG | 9550 fluorescence intensity (a.u.)
CCACCAGTTTAATTATTCTATTGTACCTGCTCTATTATATCGGAGTCACCTAGTGCAG | 8470 fluorescence intensity (a.u.)
CTCCACCCTGGAATTTTCTTCTCTACCAAGTCCCTTTCAACGGAGTCACCTAGTGCAG | 8330 fluorescence intensity (a.u.)
CTAGCCAGTTCTTGCAGCCGTTTAGTCTGTTGTGACAATTCGGAGTCACCTAGTGCAG | 8070 fluorescence intensity (a.u.)
CTACACATCAATTCAGTTTATTCTTATTTTTAGGGTCATGCGGAGTCACCTAGTGCAG | 8500 fluorescence intensity (a.u.)
ATCTGGACCTATTTACAGCGGTTGACTTGATCTACCAATGCGGAGTCACCTAGTGCAG | 8400 fluorescence intensity (a.u.)
ACGGCCTAGTTTTGGTTGAAGTTTTTGGTAGGGGTTAGTTCGGAGTCACCTAGTGCAG | 12300 fluorescence intensity (a.u.)
ATGCAAACTCTGACTCTGACCACTGGGCCCAACACGATCCCGGAGTCACCTAGTGCAG | 8400 fluorescence intensity (a.u.)
AGGTTGTGTTTAGTTCCTTGTCAAAATTTTTTATGCATATCGGAGTCACCTAGTGCAG | 11400 fluorescence intensity (a.u.)
GTCTCGCACTTTCACTGTATGATACCGGCCACGATGTCATCGGAGTCACCTAGTGCAG | 9930 fluorescence intensity (a.u.)
GGCCATCCTATTCCTAGCTCATCATCACACTCTTGCATACCGGAGTCACCTAGTGCAG | 9510 fluorescence intensity (a.u.)
TTCTGTCGTGATTGCTTTGCTTCGGGTTTGCTCAGCGCTACGGAGTCACCTAGTGCAG | 8650 fluorescence intensity (a.u.)
GTTCTTTTGTCGCTTATTGCAACGGGTGGGATATGTGTGACGGAGTCACCTAGTGCAG | 12300 fluorescence intensity (a.u.)
